The list shows a part of the results. This is a noisy data set.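 Tm was set to 64 °C where no melting was found, and many curves are irregular.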
Compound: CCc1cnccc1C(=O)Nc1cc2c(cc1F)NC(=O)CC2
Assay: melting temperature shift (DMSO Tm minus MBE1-treated Tm) in cellular thermal proteome profiling; higher = less thermal stabilization by MBE1 (negative = stabilized by MBE1)
Conditions: A375

Amino acid sequences for entries named in this document (tags omitted). A change or cut given only in a name is not applied to a line headed by its entry.
UniProt Q13011: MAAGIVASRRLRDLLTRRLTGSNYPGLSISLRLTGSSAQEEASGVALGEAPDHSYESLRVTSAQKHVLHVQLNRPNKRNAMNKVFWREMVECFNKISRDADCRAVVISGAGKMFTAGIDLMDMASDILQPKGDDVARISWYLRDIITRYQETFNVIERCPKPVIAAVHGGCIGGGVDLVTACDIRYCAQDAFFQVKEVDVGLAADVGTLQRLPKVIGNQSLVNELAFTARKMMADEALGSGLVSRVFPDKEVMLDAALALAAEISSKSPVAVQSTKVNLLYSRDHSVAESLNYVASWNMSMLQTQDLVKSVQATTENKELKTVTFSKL
UniProt Q12893: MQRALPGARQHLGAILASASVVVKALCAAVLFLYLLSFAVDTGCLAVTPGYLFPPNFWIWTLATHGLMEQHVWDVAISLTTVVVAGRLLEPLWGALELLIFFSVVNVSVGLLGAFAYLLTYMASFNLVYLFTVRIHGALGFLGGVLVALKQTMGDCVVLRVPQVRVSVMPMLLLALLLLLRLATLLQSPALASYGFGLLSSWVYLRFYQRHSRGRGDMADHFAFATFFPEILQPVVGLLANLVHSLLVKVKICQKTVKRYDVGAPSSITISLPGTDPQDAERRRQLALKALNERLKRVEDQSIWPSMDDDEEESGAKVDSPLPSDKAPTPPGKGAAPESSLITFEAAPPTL
UniProt Q07666, whole entry: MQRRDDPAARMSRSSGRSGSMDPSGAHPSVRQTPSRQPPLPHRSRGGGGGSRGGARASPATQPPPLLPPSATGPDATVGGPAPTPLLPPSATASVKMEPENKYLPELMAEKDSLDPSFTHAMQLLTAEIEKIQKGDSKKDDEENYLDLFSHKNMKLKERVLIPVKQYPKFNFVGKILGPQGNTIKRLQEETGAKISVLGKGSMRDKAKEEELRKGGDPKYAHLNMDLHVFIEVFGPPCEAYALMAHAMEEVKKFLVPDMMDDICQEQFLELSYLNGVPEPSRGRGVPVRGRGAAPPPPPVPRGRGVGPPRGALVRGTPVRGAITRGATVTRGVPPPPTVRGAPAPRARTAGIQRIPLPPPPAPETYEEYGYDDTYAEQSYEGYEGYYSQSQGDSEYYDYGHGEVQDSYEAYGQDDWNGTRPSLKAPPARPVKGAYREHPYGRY
UniProt Q00535, whole entry, looked up: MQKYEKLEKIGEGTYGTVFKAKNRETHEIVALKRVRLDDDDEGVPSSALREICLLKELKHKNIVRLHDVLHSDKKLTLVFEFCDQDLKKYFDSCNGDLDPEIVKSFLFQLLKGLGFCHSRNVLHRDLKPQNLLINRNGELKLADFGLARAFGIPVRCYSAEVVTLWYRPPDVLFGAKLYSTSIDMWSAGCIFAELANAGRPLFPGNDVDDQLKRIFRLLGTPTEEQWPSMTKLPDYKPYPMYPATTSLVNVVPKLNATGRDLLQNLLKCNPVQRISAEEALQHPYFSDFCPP
UniProt Q09472, whole entry: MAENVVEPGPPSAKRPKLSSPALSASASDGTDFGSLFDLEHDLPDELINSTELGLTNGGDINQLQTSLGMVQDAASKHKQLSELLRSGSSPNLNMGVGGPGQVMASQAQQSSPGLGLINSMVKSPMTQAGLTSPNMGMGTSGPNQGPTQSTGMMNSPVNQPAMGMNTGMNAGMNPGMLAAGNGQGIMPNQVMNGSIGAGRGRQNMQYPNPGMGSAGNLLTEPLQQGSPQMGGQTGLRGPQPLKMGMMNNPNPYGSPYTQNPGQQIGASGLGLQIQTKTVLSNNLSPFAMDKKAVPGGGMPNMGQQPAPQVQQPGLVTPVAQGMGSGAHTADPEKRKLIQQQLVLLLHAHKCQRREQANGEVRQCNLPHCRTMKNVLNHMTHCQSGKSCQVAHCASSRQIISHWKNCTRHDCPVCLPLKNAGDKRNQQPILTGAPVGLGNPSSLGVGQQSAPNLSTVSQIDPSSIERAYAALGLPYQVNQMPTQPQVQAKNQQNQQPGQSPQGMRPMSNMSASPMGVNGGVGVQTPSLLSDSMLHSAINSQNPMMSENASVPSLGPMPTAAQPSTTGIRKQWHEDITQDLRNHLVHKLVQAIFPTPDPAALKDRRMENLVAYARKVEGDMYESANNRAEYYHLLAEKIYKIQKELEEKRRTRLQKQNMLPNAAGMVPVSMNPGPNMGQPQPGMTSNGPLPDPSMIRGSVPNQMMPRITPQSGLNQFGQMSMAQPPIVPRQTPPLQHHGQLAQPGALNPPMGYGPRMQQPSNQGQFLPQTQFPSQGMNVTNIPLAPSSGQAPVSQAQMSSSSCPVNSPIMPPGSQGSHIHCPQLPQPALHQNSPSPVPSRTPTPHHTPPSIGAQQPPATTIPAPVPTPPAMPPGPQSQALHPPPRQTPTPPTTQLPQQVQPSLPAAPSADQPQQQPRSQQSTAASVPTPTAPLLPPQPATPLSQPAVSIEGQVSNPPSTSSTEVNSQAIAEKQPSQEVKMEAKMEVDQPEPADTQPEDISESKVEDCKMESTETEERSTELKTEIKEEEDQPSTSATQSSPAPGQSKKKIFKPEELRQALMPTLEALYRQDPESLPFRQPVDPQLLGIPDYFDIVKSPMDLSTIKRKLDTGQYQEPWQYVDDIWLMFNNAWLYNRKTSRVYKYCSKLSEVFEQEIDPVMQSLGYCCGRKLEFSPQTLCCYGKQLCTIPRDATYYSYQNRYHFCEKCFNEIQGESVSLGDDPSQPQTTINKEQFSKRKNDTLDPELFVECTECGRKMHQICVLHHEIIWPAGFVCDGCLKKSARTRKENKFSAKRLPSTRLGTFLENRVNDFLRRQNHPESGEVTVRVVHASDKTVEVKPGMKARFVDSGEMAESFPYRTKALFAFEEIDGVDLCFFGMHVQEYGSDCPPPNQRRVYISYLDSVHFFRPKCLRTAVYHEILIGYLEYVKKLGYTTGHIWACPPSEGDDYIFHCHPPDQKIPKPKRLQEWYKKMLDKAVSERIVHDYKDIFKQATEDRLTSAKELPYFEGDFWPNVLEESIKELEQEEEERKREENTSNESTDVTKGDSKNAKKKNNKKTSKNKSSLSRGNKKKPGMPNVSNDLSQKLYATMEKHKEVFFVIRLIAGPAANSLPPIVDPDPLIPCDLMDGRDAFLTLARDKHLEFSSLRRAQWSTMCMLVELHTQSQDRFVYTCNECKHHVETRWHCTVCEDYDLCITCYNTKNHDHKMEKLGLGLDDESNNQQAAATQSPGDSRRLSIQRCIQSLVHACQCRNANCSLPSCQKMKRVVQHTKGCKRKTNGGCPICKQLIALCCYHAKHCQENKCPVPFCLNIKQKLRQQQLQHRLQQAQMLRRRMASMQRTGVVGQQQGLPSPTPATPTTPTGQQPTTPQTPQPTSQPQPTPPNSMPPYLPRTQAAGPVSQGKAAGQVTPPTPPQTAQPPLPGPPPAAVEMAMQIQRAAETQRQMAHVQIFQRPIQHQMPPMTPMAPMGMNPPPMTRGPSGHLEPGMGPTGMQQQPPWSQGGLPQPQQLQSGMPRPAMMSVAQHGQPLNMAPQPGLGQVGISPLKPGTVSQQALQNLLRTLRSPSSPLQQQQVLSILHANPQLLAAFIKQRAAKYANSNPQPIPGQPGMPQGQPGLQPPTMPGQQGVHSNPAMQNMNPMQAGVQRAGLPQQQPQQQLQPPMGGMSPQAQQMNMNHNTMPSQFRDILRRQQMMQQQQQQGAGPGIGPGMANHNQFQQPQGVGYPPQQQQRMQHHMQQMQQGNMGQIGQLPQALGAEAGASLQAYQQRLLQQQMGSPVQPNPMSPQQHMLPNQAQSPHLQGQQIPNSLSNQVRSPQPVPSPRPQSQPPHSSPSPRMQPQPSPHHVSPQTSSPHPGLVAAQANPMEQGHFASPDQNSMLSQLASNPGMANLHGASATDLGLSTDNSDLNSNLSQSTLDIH
UniProt P78524: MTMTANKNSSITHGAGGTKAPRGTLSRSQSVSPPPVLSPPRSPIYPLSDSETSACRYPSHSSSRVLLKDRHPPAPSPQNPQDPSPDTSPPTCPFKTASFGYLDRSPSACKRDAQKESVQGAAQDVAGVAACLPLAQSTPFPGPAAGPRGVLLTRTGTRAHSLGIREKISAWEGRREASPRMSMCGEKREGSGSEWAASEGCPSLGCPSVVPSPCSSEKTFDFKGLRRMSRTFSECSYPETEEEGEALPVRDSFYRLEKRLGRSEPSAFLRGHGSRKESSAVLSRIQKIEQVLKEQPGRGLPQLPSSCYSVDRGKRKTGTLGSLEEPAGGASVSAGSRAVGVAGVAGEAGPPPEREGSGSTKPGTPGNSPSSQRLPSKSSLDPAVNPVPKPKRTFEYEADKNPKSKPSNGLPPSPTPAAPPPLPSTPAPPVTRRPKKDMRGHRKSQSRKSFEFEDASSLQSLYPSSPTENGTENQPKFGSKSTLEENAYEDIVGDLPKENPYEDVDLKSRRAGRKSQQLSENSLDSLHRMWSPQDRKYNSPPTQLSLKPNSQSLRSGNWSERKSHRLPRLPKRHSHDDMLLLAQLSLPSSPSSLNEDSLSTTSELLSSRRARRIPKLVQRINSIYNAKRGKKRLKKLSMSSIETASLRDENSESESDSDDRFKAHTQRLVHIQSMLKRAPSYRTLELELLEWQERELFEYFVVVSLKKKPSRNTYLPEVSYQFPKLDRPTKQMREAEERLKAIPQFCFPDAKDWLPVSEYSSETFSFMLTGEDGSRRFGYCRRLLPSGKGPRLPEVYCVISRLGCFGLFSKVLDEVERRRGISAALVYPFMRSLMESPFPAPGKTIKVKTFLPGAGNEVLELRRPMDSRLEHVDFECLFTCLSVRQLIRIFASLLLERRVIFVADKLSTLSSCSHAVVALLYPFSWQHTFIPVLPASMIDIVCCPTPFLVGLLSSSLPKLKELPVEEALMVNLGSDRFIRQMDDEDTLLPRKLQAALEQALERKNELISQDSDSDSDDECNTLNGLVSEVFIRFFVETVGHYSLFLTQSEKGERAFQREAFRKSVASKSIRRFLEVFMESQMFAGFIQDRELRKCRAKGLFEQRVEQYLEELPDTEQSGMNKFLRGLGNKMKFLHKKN
UniProt P84095: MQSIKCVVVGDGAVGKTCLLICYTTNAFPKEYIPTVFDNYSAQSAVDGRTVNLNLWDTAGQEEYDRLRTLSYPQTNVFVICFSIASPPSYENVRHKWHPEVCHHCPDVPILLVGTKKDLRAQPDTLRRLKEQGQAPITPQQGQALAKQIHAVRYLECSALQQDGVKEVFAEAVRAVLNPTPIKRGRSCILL
UniProt Q06323: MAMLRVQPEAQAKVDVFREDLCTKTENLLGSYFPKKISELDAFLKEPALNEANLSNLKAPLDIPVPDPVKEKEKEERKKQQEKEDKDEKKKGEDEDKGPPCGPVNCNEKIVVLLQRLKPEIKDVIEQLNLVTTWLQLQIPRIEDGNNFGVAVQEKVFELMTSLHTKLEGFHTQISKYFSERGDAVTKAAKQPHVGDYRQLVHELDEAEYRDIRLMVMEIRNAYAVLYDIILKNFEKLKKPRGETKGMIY
UniProt Q12894: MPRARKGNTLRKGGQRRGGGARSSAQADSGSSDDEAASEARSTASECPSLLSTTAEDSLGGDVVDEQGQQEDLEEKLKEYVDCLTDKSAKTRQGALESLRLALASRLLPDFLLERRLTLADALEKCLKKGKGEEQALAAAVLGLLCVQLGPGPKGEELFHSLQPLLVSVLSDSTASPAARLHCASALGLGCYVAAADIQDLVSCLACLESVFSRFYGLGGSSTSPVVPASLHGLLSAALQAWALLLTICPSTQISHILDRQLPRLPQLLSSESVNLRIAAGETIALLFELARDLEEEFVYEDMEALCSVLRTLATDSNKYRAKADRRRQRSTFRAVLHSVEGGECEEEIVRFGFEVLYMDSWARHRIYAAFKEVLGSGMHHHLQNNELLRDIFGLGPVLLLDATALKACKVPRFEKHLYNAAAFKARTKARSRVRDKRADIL
UniProt Q09328: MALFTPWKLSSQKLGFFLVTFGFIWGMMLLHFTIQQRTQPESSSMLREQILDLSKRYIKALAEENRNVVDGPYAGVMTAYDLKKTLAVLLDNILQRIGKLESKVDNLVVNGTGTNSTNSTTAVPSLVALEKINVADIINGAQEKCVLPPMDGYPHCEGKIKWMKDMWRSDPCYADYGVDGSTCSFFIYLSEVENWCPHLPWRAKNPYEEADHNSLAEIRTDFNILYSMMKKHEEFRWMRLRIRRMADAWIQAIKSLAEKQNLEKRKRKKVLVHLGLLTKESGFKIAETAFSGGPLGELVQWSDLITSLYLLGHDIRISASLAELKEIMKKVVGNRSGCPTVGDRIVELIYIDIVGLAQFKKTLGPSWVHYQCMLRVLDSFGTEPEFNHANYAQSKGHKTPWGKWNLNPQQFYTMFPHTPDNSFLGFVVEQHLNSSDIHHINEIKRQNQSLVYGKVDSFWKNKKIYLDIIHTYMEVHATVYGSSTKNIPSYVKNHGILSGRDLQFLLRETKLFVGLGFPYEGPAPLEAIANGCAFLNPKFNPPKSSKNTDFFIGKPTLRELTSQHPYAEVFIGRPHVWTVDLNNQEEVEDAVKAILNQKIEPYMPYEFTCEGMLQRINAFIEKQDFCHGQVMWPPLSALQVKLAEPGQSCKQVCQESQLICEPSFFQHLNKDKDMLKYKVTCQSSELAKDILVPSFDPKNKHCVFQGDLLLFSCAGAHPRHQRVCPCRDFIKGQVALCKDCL

| Target | melting temperature shift (MBE1 concentration: 100 nM) | melting temperature shift (MBE1 concentration: 1 uM) |
| --- | --- | --- |
| ECH1 (UniProt Q13011) | -1.15 °C | -0.674 °C |
| ALDH6A1 (UniProt Q02252) | -0.336 °C | -1.29 °C |
| UniProt Q04724 | -0.678 °C | -0.69 °C |
| UniProt Q03468 | -1.21 °C | -1.98 °C |
| TAP1 (UniProt Q03518) | 0.165 °C | 0.621 °C |
| GTF2B (UniProt Q00403) | -0.991 °C | -0.557 °C |
| UniProt Q12860 | -1.42 °C | 0.401 °C |
| ATP11A (UniProt P98196) | -1.02 °C | 0.214 °C |
| ARHGAP4 (UniProt P98171) | -0.879 °C | 0.032 °C |
| TMEM115 (UniProt Q12893) | -0.397 °C | -0.263 °C |
| UniProt Q03113 | 1.22 °C | -1.01 °C |
| ABR (UniProt Q12979) | -0.822 °C | -0.824 °C |
| SORD (UniProt Q00796) | -1.01 °C | 0.337 °C |
| UniProt Q08043 | -1.2 °C | -1.04 °C |
| TYRO3 (UniProt Q06418) | -1.02 °C | -0.835 °C |
| SRSF11 (UniProt Q05519) | -0.0366 °C | -0.348 °C |
| RPL18 (UniProt Q07020) | -0.311 °C | -0.104 °C |
| OCRL (UniProt Q01968) | 0.843 °C | 1.03 °C |
| RING1 (UniProt Q06587) | -0.391 °C | -0.397 °C |
| TRAF2 (UniProt Q12933) | -0.268 °C | 0.417 °C |
| PLOD1 (UniProt Q02809) | -0.919 °C | 0.168 °C |
| GALNT1 (UniProt Q10472) | -0.657 °C | -0.483 °C |
| UniProt Q13043 | -0.89 °C | -0.581 °C |
| AES (UniProt Q08117) | 0.965 °C | -1.86 °C |

| Target | melting temperature shift (MBE1 concentration: 100 nM) | melting temperature shift (MBE1 concentration: 1 uM) |
| --- | --- | --- |
| DLG1 (UniProt Q12959) | -0.856 °C | -0.305 °C |
| UniProt Q05084 | 0.366 °C | 0.653 °C |
| SRSF1 (UniProt Q07955) | -1.33 °C | 0.873 °C |
| UniProt Q05D32 | 0.616 °C | 0.395 °C |
| IFI35 (UniProt P80217) | -1.55 °C | 0.557 °C |
| GOLGA2 (UniProt Q08379) | -0.267 °C | -0.622 °C |
| RBPJ (UniProt Q06330) | -1.06 °C | -0.0672 °C |
| SPAG1 (UniProt Q07617) | 1.31 °C | -0.342 °C |
| UniProt Q02750 | -0.436 °C | -0.0268 °C |
| TIAL1 (UniProt Q01085) | -0.977 °C | -0.0916 °C |
| CEBPZ (UniProt Q03701) | -0.617 °C | -0.118 °C |
| CENPE (UniProt Q02224) | 0.336 °C | 1.89 °C |
| EWSR1 (UniProt Q01844) | -6.09 °C | -0.782 °C |
| SSRP1 (UniProt Q08945) | -0.308 °C | -0.384 °C |
| POLE (UniProt Q07864) | -0.314 °C | -0.34 °C |
| CBX1 (UniProt P83916) | -0.427 °C | -0.0183 °C |
| UniProt P98175 | -1.49 °C | -0.532 °C |
| UBE3A (UniProt Q05086) | -0.235 °C | 0.0783 °C |
| MPP1 (UniProt Q00013) | -1.09 °C | -0.922 °C |
| UniProt Q03188 | -0.0604 °C | 0.664 °C |
| UniProt P78527 | 0.226 °C | 0.055 °C |
| TFAM (UniProt Q00059) | -2.64 °C | -2.01 °C |
| PAFAH1B2 (UniProt P68402) | -0.0753 °C | -0.334 °C |
| KHDRBS1 (UniProt Q07666) | -0.107 °C | 0.25 °C |

Single records (already shown). Values in the order: melting temperature shift (MBE1 concentration: 100 nM) | melting temperature shift (MBE1 concentration: 1 uM)
SRSF1 (UniProt Q07955) in the list: -1.33 °C | 0.873 °C
IFI35 (UniProt P80217) in the list: -1.55 °C | 0.557 °C
ECH1 (UniProt Q13011) in the list: -1.15 °C | -0.674 °C

Next part

| Target | melting temperature shift (MBE1 concentration: 100 nM) | melting temperature shift (MBE1 concentration: 1 uM) |
| --- | --- | --- |
| UniProt P78357 | -1.07 °C | 0.202 °C |
| STRN3 (UniProt Q13033) | -0.316 °C | 0.318 °C |
| CDK5 (UniProt Q00535) | 0.0122 °C | -0.55 °C |
| CLTC (UniProt Q00610) | 0.574 °C | 0.318 °C |
| UniProt Q08AE8 | -1.95 °C | -0.968 °C |
| NTHL1 (UniProt P78549) | -1.27 °C | 0.154 °C |
| UniProt Q12929 | 0.182 °C | 0.0272 °C |
| SMARCB1 (UniProt Q12824) | -0.301 °C | -0.211 °C |
| EP300 (UniProt Q09472) | 0.36 °C | 0.122 °C |
| NCBP1 (UniProt Q09161) | 1.25 °C | 0.226 °C |
| ARHGAP5 (UniProt Q13017) | -0.423 °C | -0.0706 °C |
| FAM3A (UniProt P98173) | -0.387 °C | 0.208 °C |
| SLC7A5 (UniProt Q01650) | -3.01 °C | -0.161 °C |
| UniProt Q01196 | -0.433 °C | -0.641 °C |
| NEXN (UniProt Q0ZGT2) | 1.76 °C | 0.586 °C |
| IGBP1 (UniProt P78318) | 0.116 °C | 0.611 °C |
| CAV1 (UniProt Q03135) | -0.986 °C | -0.521 °C |
| UniProt Q12840 | 0.44 °C | 0.305 °C |
| TWF1 (UniProt Q12792) | -0.583 °C | 0.496 °C |
| UniProt P78524 | 1.23 °C | 0.659 °C |
| AP1B1 (UniProt Q10567) | 0.147 °C | 0.543 °C |
| FKBP3 (UniProt Q00688) | -0.772 °C | -0.215 °C |
| PFKP (UniProt Q01813) | -1.09 °C | -1.09 °C |
| UniProt Q12968 | -0.122 °C | -0.331 °C |

| Target | melting temperature shift (MBE1 concentration: 100 nM) | melting temperature shift (MBE1 concentration: 1 uM) |
| --- | --- | --- |
| KIAA0196 (UniProt Q12768) | 0.287 °C | 0 °C |
| GRSF1 (UniProt Q12849) | -0.63 °C | -0.169 °C |
| PPID (UniProt Q08752) | -0.565 °C | -0.282 °C |
| STX4 (UniProt Q12846) | 0.305 °C | 0.745 °C |
| LMAN2 (UniProt Q12907) | 0.107 °C | -0.255 °C |
| RHOG (UniProt P84095) | -1.5 °C | 2.15 °C |
| CSTF3 (UniProt Q12996) | -0.373 °C | 0.269 °C |
| ILF2 (UniProt Q12905) | -1.5 °C | 1.34 °C |
| SLC25A3 (UniProt Q00325) | -2.61 °C | 0.712 °C |
| UniProt P78324 | -2.92 °C | -0.307 °C |
| SRSF3 (UniProt P84103) | -3.44 °C | -1.95 °C |
| GOLGA3 (UniProt Q08378) | -0.403 °C | 0.202 °C |
| PSME1 (UniProt Q06323) | -0.215 °C | -0.228 °C |
| IFRD2 (UniProt Q12894) | 0.0488 °C | 1.03 °C |
| SRPK2 (UniProt P78362) | -1.15 °C | -1.73 °C |
| RPL24 (UniProt P83731) | -1.52 °C | 0.611 °C |
| GABPA (UniProt Q06546) | -1.43 °C | -0.725 °C |
| RAE1 (UniProt P78406) | 0.157 °C | -0.0855 °C |
| ASPH (UniProt Q12797) | -0.604 °C | -0.577 °C |
| MRPS15 (UniProt P82914) | 0.91 °C | 1.34 °C |
| MRPS34 (UniProt P82930) | 0.336 °C | -0.122 °C |
| GBE1 (UniProt Q04446) | 0.202 °C | -0.189 °C |
| UniProt Q01469 | -0.311 °C | -0.904 °C |
| HSPA14 (UniProt Q0VDF9) | -0.315 °C | -0.885 °C |

| Target | melting temperature shift (MBE1 concentration: 100 nM) | melting temperature shift (MBE1 concentration: 1 uM) |
| --- | --- | --- |
| GALNT2 (UniProt Q10471) | 0.684 °C | 0.202 °C |
| MRPS21 (UniProt P82921) | 0.611 °C | 1.28 °C |
| NFX1 (UniProt Q12986) | 0.861 °C | -0.281 °C |
| EIF4G2 (UniProt P78344) | -0.624 °C | -0.147 °C |
| UniProt P83369 | -1.48 °C | -0.711 °C |
| SLC25A11 (UniProt Q02978) | -2.14 °C | -2.38 °C |
| C1QBP (UniProt Q07021) | 0.0122 °C | 0.379 °C |
| VLDLR (UniProt P98155) | -0.653 °C | -2.11 °C |
| CXADR (UniProt P78310) | 0.574 °C | -0.0317 °C |
| UniProt Q09328 | -2.45 °C | 2.21 °C |
| MRPS35 (UniProt P82673) | 0.904 °C | 0 °C |
| SLFN5 (UniProt Q08AF3) | 0.104 °C | 0.378 °C |
| LMNB2 (UniProt Q03252) | 0.336 °C | 0.202 °C |
| UniProt P78540 | -0.774 °C | 0 °C |
| MCL1 (UniProt Q07820) | 1.81 °C | 2.05 °C |
| TMF1 (UniProt P82094) | -1.66 °C | 0.404 °C |
| AHNAK (UniProt Q09666) | -1.42 °C | 0.482 °C |
| FMR1 (UniProt Q06787) | 0.672 °C | -0.238 °C |
| FKBP4 (UniProt Q02790) | 0.275 °C | -0.0611 °C |
| RPL19 (UniProt P84098) | -1.66 °C | -4.35 °C |
| TLE4 (UniProt Q04727) | -1.23 °C | 0.263 °C |
| EXOSC10 (UniProt Q01780) | -0.0192 °C | -0.179 °C |
| TNFAIP2 (UniProt Q03169) | 0.122 °C | 0.519 °C |
| UniProt P78395 | -0.397 °C | -0.346 °C |

Some of the entries so far, with tabs:
Target	melting temperature shift (MBE1 concentration: 100 nM)	melting temperature shift (MBE1 concentration: 1 uM)
SLC25A3 (UniProt Q00325)	-2.61 °C	0.712 °C
UniProt P78324	-2.92 °C	-0.307 °C
SRSF3 (UniProt P84103)	-3.44 °C	-1.95 °C
GOLGA3 (UniProt Q08378)	-0.403 °C	0.202 °C
PSME1 (UniProt Q06323)	-0.215 °C	-0.228 °C
IFRD2 (UniProt Q12894)	0.0488 °C	1.03 °C
SRPK2 (UniProt P78362)	-1.15 °C	-1.73 °C
RPL24 (UniProt P83731)	-1.52 °C	0.611 °C
RAE1 (UniProt P78406)	0.157 °C	-0.0855 °C
ASPH (UniProt Q12797)	-0.604 °C	-0.577 °C
MRPS34 (UniProt P82930)	0.336 °C	-0.122 °C
GBE1 (UniProt Q04446)	0.202 °C	-0.189 °C
UniProt Q01469	-0.311 °C	-0.904 °C
HSPA14 (UniProt Q0VDF9)	-0.315 °C	-0.885 °C
GALNT2 (UniProt Q10471)	0.684 °C	0.202 °C
MRPS21 (UniProt P82921)	0.611 °C	1.28 °C
NFX1 (UniProt Q12986)	0.861 °C	-0.281 °C
EIF4G2 (UniProt P78344)	-0.624 °C	-0.147 °C
UniProt P83369	-1.48 °C	-0.711 °C
SLC25A11 (UniProt Q02978)	-2.14 °C	-2.38 °C
C1QBP (UniProt Q07021)	0.0122 °C	0.379 °C
VLDLR (UniProt P98155)	-0.653 °C	-2.11 °C
CXADR (UniProt P78310)	0.574 °C	-0.0317 °C
UniProt Q09328	-2.45 °C	2.21 °C
MRPS35 (UniProt P82673)	0.904 °C	0 °C
SLFN5 (UniProt Q08AF3)	0.104 °C	0.378 °C
LMNB2 (UniProt Q03252)	0.336 °C	0.202 °C
UniProt P78540	-0.774 °C	0 °C
MCL1 (UniProt Q07820)	1.81 °C	2.05 °C
TMF1 (UniProt P82094)	-1.66 °C	0.404 °C
AHNAK (UniProt Q09666)	-1.42 °C	0.482 °C
FMR1 (UniProt Q06787)	0.672 °C	-0.238 °C
FKBP4 (UniProt Q02790)	0.275 °C	-0.0611 °C
RPL19 (UniProt P84098)	-1.66 °C	-4.35 °C
TLE4 (UniProt Q04727)	-1.23 °C	0.263 °C
EXOSC10 (UniProt Q01780)	-0.0192 °C	-0.179 °C
UniProt P78395	-0.397 °C	-0.346 °C

— the supplement of paper PMC12595434, “Development of retinoid nuclear receptor pathway antagonists through targeting aldehyde dehydrogenase 1A3” (iScience, 2025)
